Test results taken from the supplement of paper PMC10735217.
Structures can show the parent of a compound that is named as a salt. The list shows a part of the results. This data set is noisy: repeats of one test often differ as much as different tests do.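 In a drug-repurposing library screen, luminescence reads luciferase driven by eight TEAD-binding elements, stably integrated into human kidney-derived cells. Compounds scoring over five robust Z scores above the plate mean are called hits.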

Test system: HEK293A TEAD-LUC reporter
Test: TEAD-luciferase reporter activity (YAP activation), robust Z score vs plate; higher = stronger YAP/TEAD activation
Details: 24 h

Compound	TEAD-luciferase reporter activity (compound concentration: 200 nM)	TEAD-luciferase reporter activity (compound concentration: 2 uM)	TEAD-luciferase reporter activity (compound concentration: 10 uM)
CNC(=O)[C@H](Cc1ccccc1)NC(=O)[C@@H](CC(C)C)S[C@H]1CN(C(=O)NCCN2C(=O)c3ccccc3C2=O)C[C@H]1S	inactive: -0.951	inactive: 0.616	inactive: 1.41
Cc1ccccc1OCC(O)CN1CCN(c2ccc(F)cc2)CC1 (stereo unspecified)	inactive: 3.62	inactive: -1.44	inactive: -0.349
Cc1cc(NS(=O)(=O)c2ccc(N)cc2)sn1	inactive: -2.46	inactive: -1.32	inactive: 1.4
CCOc1nc2cccc(C(=O)O)c2n1Cc1ccc(-c2ccccc2-c2noc(=O)[nH]2)cc1 [Azilsartan]	inactive: -0.648	inactive: -0.306	inactive: -1.53
CCCCC1=NC2(CCCC2)C(=O)N1Cc1ccc(-c2ccccc2S(=O)(=O)Nc2noc(C)c2C)c(COCC)c1 [Sparsentan]	inactive: 0.04	inactive: -1.23	inactive: 0.822
CCOc1cc2ncc(C#N)c(Nc3ccc(OCc4ccccn4)c(Cl)c3)c2cc1NC(=O)/C=C/CN(C)C	inactive: -0.261	–	inactive: 0.376
CCOc1cc2ncc(C#N)c(Nc3ccc(OCc4ccccn4)c(Cl)c3)c2cc1NC(=O)/C=C/CN(C)C [neratinib]	–	inactive: -2.16	–
CCCc1c(OCC(O)COc2ccc3c(=O)cc(C(=O)O)oc3c2CCC)ccc(C(C)=O)c1O (stereo unspecified)	inactive: -1.86	inactive: -2.73	inactive: -2.42
O=C(c1ccc(Oc2ccccc2)cc1Cl)c1c[nH]c2ncnc(N[C@@H]3CC[C@@H](CO)OC3)c12	inactive: -1.33	–	inactive: -1.17
OCc1ccc2c(c1)C(N1CCC(O)(c3ccccc3)CC1)c1ccccc1CO2 (stereo unspecified)	inactive: -1.25	inactive: 0.541	inactive: 2.71
CCCCN(CCC1CCCCC1)Cc1ccc(C(=O)N[C@@H](CCSC)C(=O)O)c(-c2ccccc2C)c1	inactive: -0.118	inactive: 0.286	inactive: 2.37
O=C(O)C1=Cc2sc(Cn3ccnc3)cc2CC1 [Imitrodast sodium]	inactive: 0.518	inactive: -0.656	inactive: -0.0819
O=C(O)Cc1ccc(C2CCCCC2)cc1	inactive: -1.22	inactive: 1.2	inactive: -1.8
CC(=O)OCC1=C(C(=O)O)N2C(=O)C(NC(=O)Cc3ccccc3)C2SC1 (stereo unspecified)	inactive: -0.275	inactive: 0.132	inactive: -1.12
COC(=O)C(N)Cc1ccc(Oc2ccc(/C=C3/SC(=O)NC3=O)cc2)cc1 (stereo unspecified)	inactive: -2.18	inactive: -0.339	inactive: -0.416
CC(C)C=O [Isobutyraldehyde]	–	inactive: 0.616	inactive: -1.31
Nc1ccn(C[C@@H]2COP(=O)(O)CO2)c(=O)n1	inactive: -0.238	inactive: -1.39	inactive: -0.548
CCC(=O)OC(CC(=O)O)C[N+](C)(C)C [propionyl L-carnitine, Sigma]	inactive: 1.27	–	inactive: -0.178
CCC(=O)OC(CC(=O)O)C[N+](C)(C)C [propionyl L-carnitine]	–	inactive: -1.23	–
COC[C@H](C)Oc1cc(Oc2cnc(C(=O)N3CCC3)cn2)cc(C(=O)Nc2ccc(OC)cc2)c1	inactive: 1.13	inactive: -1.2	inactive: -0.313
O=C(O)[C@H]1C2CCC(CC2)[C@@H]1Nc1nc(-c2c[nH]c3ncc(F)cc23)ncc1F [Pimodivir]	inactive: 2.15	inactive: -1.32	inactive: -0.524
Cc1nc(N)c2cc(-n3nc(C(F)(F)F)cc3C(=O)Nc3ccc(-c4ccccc4S(N)(=O)=O)cc3F)ccc2n1	inactive: 0.312	inactive: -2.32	inactive: -1.53
CN(CCN1CCC(OC(=O)Nc2ccccc2-c2ccccc2)CC1)C(=O)c1ccc(CN2CCC(C(N)=O)CC2)cc1 [Revefenacin]	inactive: -1	inactive: -0.705	inactive: -0.276
COCc1nnc(-c2cccnc2)n1-c1c(Cl)c(Cl)cc2c1=NC(=O)C(=O)N=2	inactive: -0.474	inactive: 2.27	inactive: -0.499
CC(C)(C)NC(=O)[C@H]1CC[C@H]2[C@@H]3CC[C@H]4NC(=O)C=C[C@]4(C)[C@H]3CC[C@]12C [finasteride]	–	inactive: -1.36	–
CC(C)(C)NC(=O)[C@H]1CC[C@H]2[C@@H]3CC[C@H]4NC(=O)C=C[C@]4(C)[C@H]3CC[C@]12C	inactive: -0.926	–	inactive: -0.315

Compound	TEAD-luciferase reporter activity (compound concentration: 200 nM)	TEAD-luciferase reporter activity (compound concentration: 2 uM)	TEAD-luciferase reporter activity (compound concentration: 10 uM)
COC(=O)C1=C(C)NC(C)=C(P2(=O)OCCCO2)C1c1ccccc1[N+](=O)[O-] (stereo unspecified)	inactive: -1.3	inactive: -0.962	inactive: 0.293
CCCCCOc1ccc(-c2ccc(-c3ccc(C(=O)N[C@H]4C[C@@H](O)[C@@H](O)NC(=O)[C@@H]5[C@@H](O)[C@@H](C)CN5C(=O)[C@H]([C@@H](C)O)NC(=O)[C@H]([C@H](O)[C@@H](O)c5ccc(O)cc5)NC(=O)[C@@H]5C[C@@H](O)CN5C(=O)[C@H]([C@@H](C)O)NC4=O)cc3)cc2)cc1 [Anidulafungin]	inactive: -0.743	inactive: 0.239	inactive: -0.327
CCCCCOc1ccc(-c2ccc(-c3ccc(C(=O)N[C@H]4C[C@@H](O)[C@@H](O)NC(=O)[C@@H]5[C@@H](O)[C@@H](C)CN5C(=O)[C@H]([C@@H](C)O)NC(=O)[C@H]([C@H](O)[C@@H](O)c5ccc(O)cc5)NC(=O)[C@@H]5C[C@@H](O)CN5C(=O)[C@H]([C@@H](C)O)NC4=O)cc3)cc2)cc1 [anidulafungin]	–	inactive: 0.913	–
O=C(Nc1ccccc1)OCC1(COC(=O)Nc2ccccc2)CCCC1	inactive: 1.72	inactive: -1.37	inactive: 1.9
CCCCC(CC)C/N=C(/N)N/C(N)=N/CCCCCC/N=C(/N)N/C(N)=N/CC(CC)CCCC (stereo unspecified) [Alexidine dihydrochloride]	inactive: 1.66	inactive: -1.37	inactive: -1.17
Cc1cc(C)c(C(=O)COC(=O)Cn2cnc3c2c(=O)n(C)c(=O)n3C)cc1C	inactive: 0.0301	inactive: -0.851	inactive: -1.1
CN(C)CCC(Oc1ccccc1OCc1ccccc1)c1ccccc1 (stereo unspecified)	inactive: -1.36	inactive: -1.05	inactive: 1.61
Cc1nc(Cl)c(Cl)n1CCCCN1CCN(c2ncc(F)cn2)CC1	inactive: -0.168	inactive: -1.1	inactive: 1.93
CCOP(=O)(OCC)C(CNc1ccc(C)nc1C)c1cc(C)c(O)c(OC)c1 (stereo unspecified)	inactive: -0.174	inactive: 0.201	inactive: 2.96
CC(C)C[C@H]1C(=O)O[C@H](Cc2ccc(N3CCOCC3)cc2)C(=O)N(C)[C@@H](CC(C)C)C(=O)O[C@H](C)C(=O)N(C)[C@@H](CC(C)C)C(=O)O[C@H](Cc2ccc(N3CCOCC3)cc2)C(=O)N(C)[C@@H](CC(C)C)C(=O)O[C@H](C)C(=O)N1C [Emodepside]	inactive: 0.123	inactive: -1.01	inactive: 1.03
COC(=O)C1=C(C)NC(C)=C(C(=O)OCCCN2CCC(c3ccccc3)(c3ccccc3)CC2)[C@@H]1c1cccc([N+](=O)[O-])c1 [dexniguldipine]	inactive: -0.533	inactive: -1.64	inactive: -0.253
CCC(C)[C@H](NC(=O)C[C@H](O)[C@H](CC1CCCCC1)NC(=O)CCNC(=O)[C@H](Cc1ccccc1)NC(=O)N1CCC(N)CC1)C(=O)NCc1cnc(C)nc1N (stereo partly specified)	inactive: -0.543	inactive: -0.568	inactive: -0.095
N#Cc1ccc(C=O)cn1	inactive: -0.313	inactive: -0.928	inactive: 0.644
COC(=O)c1ccc(O)c(N)c1	inactive: 0.22	inactive: -2.18	inactive: -1.06
O=C(CCCCCl)NNC(=O)N1Cc2ccccc2Oc2ccc(Cl)cc21 [pinadoline]	inactive: -0.653	inactive: -1.23	inactive: 3.23
CC(=O)N1Cc2ccccc2CC2(CCCCN2CC2CCCC2)C1 (stereo unspecified)	inactive: 0.0335	–	inactive: -0.572
c1ccc(-c2ncc3cc(-n4ccnc4)ccc3n2)cc1	inactive: 2.01	inactive: -0.389	inactive: 2.65
CC(CN(C)C)C(C)(O)Cc1ccc(Cl)cc1 (stereo unspecified)	inactive: -0.771	inactive: -0.742	inactive: 3.07
COc1ccc(Cc2c(O[C@@H]3O[C@H](CO)[C@@H](F)[C@H](O)[C@H]3O)n[nH]c2C(F)(F)F)cc1	inactive: -2.12	inactive: 0.738	inactive: -0.533
Cc1ccnc2c1CCCC2C(N)=S (stereo unspecified) [isotiquimide]	inactive: 1.58	inactive: -0.373	inactive: -1.17
CS(=O)(=O)c1cc(C(=O)N=C(N)N)ccc1N1CCN(C(=O)c2ccco2)CC1	inactive: -1.04	inactive: -1.27	inactive: -0.571
Cc1ccc2oc(NC(CC3CCCCC3)c3ccccn3)nc2c1 (stereo unspecified) [ontazolast]	inactive: 1.47	inactive: -0.189	inactive: 0.0874
CCC1(C)CC(=O)NC1=O (stereo unspecified) [Ethosuximide]	–	inactive: -1.71	–
CCC1(C)CC(=O)NC1=O (stereo unspecified)	inactive: -0.0572	–	inactive: 1.59
CCCCC(=O)Oc1ccc2c(c1)CC[C@@H]1[C@@H]2CC[C@]2(C)[C@@H](O)CC[C@@H]12	inactive: -0.59	inactive: 0.625	inactive: -1.02

Reformatted as comma-separated lines: entries from further up
Compound,TEAD-luciferase reporter activity (compound concentration: 200 nM),TEAD-luciferase reporter activity (compound concentration: 2 uM),TEAD-luciferase reporter activity (compound concentration: 10 uM)
COC(=O)C1=C(C)NC(C)=C(P2(=O)OCCCO2)C1c1ccccc1[N+](=O)[O-] (stereo unspecified),inactive: -1.3,inactive: -0.962,inactive: 0.293
CCCCCOc1ccc(-c2ccc(-c3ccc(C(=O)N[C@H]4C[C@@H](O)[C@@H](O)NC(=O)[C@@H]5[C@@H](O)[C@@H](C)CN5C(=O)[C@H]([C@@H](C)O)NC(=O)[C@H]([C@H](O)[C@@H](O)c5ccc(O)cc5)NC(=O)[C@@H]5C[C@@H](O)CN5C(=O)[C@H]([C@@H](C)O)NC4=O)cc3)cc2)cc1 [Anidulafungin],inactive: -0.743,inactive: 0.239,inactive: -0.327
CCCCCOc1ccc(-c2ccc(-c3ccc(C(=O)N[C@H]4C[C@@H](O)[C@@H](O)NC(=O)[C@@H]5[C@@H](O)[C@@H](C)CN5C(=O)[C@H]([C@@H](C)O)NC(=O)[C@H]([C@H](O)[C@@H](O)c5ccc(O)cc5)NC(=O)[C@@H]5C[C@@H](O)CN5C(=O)[C@H]([C@@H](C)O)NC4=O)cc3)cc2)cc1 [anidulafungin],–,inactive: 0.913,–
O=C(Nc1ccccc1)OCC1(COC(=O)Nc2ccccc2)CCCC1,inactive: 1.72,inactive: -1.37,inactive: 1.9
